# Data taken from paper PMC11564991.
# No constants are given. Whether binding was seen depends on the method and setting. Binding seen in cells or lysates may run through a third protein. Some results given as binding are weak or reduced against the parent protein; the word gives no strength.
# Biological target: T1, Cell Migration Inducing Hyaluronidase 1 (CEMIP) (human (endogenous in keloid fibroblasts)) (UniProt Q8WUJ3)
# T1 sequence: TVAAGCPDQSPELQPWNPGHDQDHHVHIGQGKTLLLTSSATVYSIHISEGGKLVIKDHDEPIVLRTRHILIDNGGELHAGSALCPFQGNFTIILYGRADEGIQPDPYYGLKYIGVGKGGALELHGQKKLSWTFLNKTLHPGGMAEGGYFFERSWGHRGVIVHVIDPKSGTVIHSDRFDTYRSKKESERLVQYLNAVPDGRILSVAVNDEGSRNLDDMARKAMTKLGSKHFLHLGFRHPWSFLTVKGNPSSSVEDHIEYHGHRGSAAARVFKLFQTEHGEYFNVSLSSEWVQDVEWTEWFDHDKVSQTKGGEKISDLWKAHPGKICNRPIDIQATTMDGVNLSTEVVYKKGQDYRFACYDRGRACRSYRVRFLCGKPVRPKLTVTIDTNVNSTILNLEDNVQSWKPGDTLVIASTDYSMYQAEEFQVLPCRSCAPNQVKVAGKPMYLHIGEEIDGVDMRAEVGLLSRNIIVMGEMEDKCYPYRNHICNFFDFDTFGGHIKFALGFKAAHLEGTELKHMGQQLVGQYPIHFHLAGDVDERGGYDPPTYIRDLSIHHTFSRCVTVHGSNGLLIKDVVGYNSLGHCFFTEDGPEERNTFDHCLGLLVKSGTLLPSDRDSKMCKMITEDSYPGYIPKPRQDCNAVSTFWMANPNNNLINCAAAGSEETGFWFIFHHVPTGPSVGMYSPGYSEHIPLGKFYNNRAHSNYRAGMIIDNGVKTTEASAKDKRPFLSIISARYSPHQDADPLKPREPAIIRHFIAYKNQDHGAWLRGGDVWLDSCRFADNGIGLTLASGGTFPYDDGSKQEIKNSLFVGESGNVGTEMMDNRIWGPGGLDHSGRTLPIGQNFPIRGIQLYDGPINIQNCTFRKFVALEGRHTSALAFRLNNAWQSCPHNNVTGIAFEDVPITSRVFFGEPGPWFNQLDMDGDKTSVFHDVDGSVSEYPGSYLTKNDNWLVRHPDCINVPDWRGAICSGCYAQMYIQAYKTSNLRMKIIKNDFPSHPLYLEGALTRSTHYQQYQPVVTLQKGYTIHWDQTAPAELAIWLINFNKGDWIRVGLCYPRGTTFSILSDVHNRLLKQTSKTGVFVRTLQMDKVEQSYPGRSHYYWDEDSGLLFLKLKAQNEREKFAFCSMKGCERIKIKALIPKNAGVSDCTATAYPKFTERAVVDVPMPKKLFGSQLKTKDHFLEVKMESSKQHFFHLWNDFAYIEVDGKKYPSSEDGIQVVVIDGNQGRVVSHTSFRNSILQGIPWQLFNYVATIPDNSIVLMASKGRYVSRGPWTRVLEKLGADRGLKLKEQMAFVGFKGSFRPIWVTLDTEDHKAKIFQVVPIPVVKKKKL
# Assay: co-IP; lysates of keloid fibroblasts (150 mM NaCl, 10 mM HEPES pH 7.4, 1% NP-40) incubated with CEMIP or SPARC antibody and protein G agarose (or HA affinity agarose) overnight at 4 °C; western blot; also done after shRNA silencing of CEMIP
binder,measurement,value
"Secreted Protein Acidic and Rich in Cysteine (SPARC) (protein, UniProt P09486 18-303) APQQEALPDETEVVEETVAEVTEVSVGANPVQVEVGEFDDGAEETEEEVVAENPCQNHHCKHGKVCELDENNTPMCVCQDPTSCPAPIGEFEKVCSNDNKTFDSSCHFFATKCTLEGTKKGHKLHLDYIGPCKYIPPCLDSELTEFPLRMRDWLKNVLVTLYERDEDNNLLTEKQKLRVKKIHENEKRLEAGDHPVELLARDFEKNYNMYIFPVHWQFGQLDQHPIDGYLSHTELAPLRAPLIPMEHCTTRFFETCDLDNDKYIALDEWAGCFGIKQKDIDKDLVI",binding,binds
